We go through 1 substance from patent publication USRE37952.

These are yes or no findings as the source states them, for the method shown. Some binding calls cover weakened binding; strength is not graded here.

The target of this assay is T1, hSOS1 Peptide (human).
T1 sequence (peptide): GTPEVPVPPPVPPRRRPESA
Nature of the assay: biotinylated GST fusion (4 µg/ml) on peptide spotted on nitrocellulose.

Regarding “biotinylated GST-Grb2 fusion protein (from UniProt P08515 1-218; P62993 1-217)”, the binding result is recorded as “binds”.
